According to EP0082023A2, “Thienopyrimidine derivatives, their preparation and their medical use” (SANKYO COMPANY LIMITED, priority 1981, dated 1983):
At least one read-out could not be matched to a standard name with certainty.

Test system: platelet aggregation
Experiment: Inhibition of collagen-induced platelet aggregation in platelet-rich plasma
Format: cell-based
Conditions: rabbit PRP, incubated 2 minutes, collagen 5 ug/ml
Experimental: The ability of various compounds of the present invention to inhibit platelet aggregation was measured using rabbit blood.
9 volumes of blood collected from male rabbit hearts and 1 volume of a 3.8% w/v aqueous solution of sodium citrate were mixed, placed in a centrifugal separator and subjected to centrifugation under 150 G for 15 minutes to give a platelet-rich-plasma (PRP). 250 pl of this PRP were placed in a cuvette and incubated for 2 minutes with a test compound at the concentration shown in Table 2. To the mixture was then added a collagen solution to a final concentration of 5 ug/ml, to induce aggregation. The aggregation was measured using an aggregometer produced by Rikadenki Co. Ltd. The inhibitory rate R' was calculated from the following formula: [formula] in which A' represents the maximum aggregation rate when only a solvent was added and B' represents the maximum aggregation rate when the test compound was added.
For comparison, the experiment was also carried out using as the test compound VK-744, of German Offenlegungsschrift No. 2,200,764, and ICI-154 of U.S. Patent Specification No. 4,146,716.

NCCNc1nc(N2CCOCC2)c2ccsc2n1 [VK-744, 2-(2-aminoethylamino)-4-morpholinothieno[2,3-d]pyrimidine, reference compound]
Inhibitory rate, R'% (concentration 10^-4 g/ml): 100% | Inhibitory rate, R'% (concentration 10^-5 g/ml): < 50%
